# The other results are listed elsewhere or left out.
# By UniProt entry, the sequences of proteins in these tests, tags left out.
# UniProt Q0JBA9, entry or part of it: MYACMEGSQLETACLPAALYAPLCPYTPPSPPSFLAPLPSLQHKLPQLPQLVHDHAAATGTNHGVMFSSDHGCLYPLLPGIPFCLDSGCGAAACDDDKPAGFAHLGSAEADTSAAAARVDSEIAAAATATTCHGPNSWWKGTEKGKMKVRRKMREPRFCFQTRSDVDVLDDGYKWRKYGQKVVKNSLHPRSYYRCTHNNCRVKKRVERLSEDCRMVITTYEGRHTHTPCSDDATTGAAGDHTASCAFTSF
# Target: OsWRKY34 (Oryza sativa, UniProt Q0JBA9 1-250)
# Assay: protein-binding microarray (RPBM); PBS, 2% BSA, 51.3 ng/ul salmon testes DNA, 50 uM zinc acetate, 200 nM TF, 25 C, 1 h; high values mean tight binding
# Details: protein: recombinant; tags: N-terminal polyhistidine and DsRed monomer fusion (pET32a); label: CyDye5-dUTP incorporated in the synthesized complementary strand; 3' TTTTT single-stranded linker to array surface; dsDNA, one strand shown
# How it was run: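 Binding signal here means per-feature fluorescence intensity in arbitrary units. The values were read on an Axon 4000B scanner after a custom Agilent array, double-stranded by primer extension with Cy5-dUTP, was incubated with 200 nM protein at 25 °C for 1 h in PBS with 2% BSA, salmon testes DNA and 50 µM zinc acetate, then washed. The proteins were transcription factors with an N-terminal polyhistidine tag and DsRed, expressed in E. coli BL21-CodonPlus and purified on Ni–NTA.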
row,Sequence,binding signal
1,ACCCTATAGTTCAGCAAGTTGTTTTACTCATTACTCATTTCGGAGTCACCTAGTGCAG,10700 fluorescence intensity (a.u.)
2,TCAAAACGGCAACTGCATGACCTCCACCACCTCCACCTCCCGGAGTCACCTAGTGCAG,8840 fluorescence intensity (a.u.)
3,TGGCATATGCAAATTATTCTTTCGTGCCGTCCTTTTACAACGGAGTCACCTAGTGCAG,8280 fluorescence intensity (a.u.)
4,CAAAACGCATGACTCCTAGCACAATCTTCTCCAGTTATCCCGGAGTCACCTAGTGCAG,9060 fluorescence intensity (a.u.)
5,GTCCTTCAACTTGATACCGAATCCCACTTTCGTCCTTGAACGGAGTCACCTAGTGCAG,8180 fluorescence intensity (a.u.)
6,CCTCATATTTCTCCTTGCATATACACTGTCTGCACCCACCCGGAGTCACCTAGTGCAG,9820 fluorescence intensity (a.u.)
7,GAACGTGACTTGTCATACTTGCCACATTACGCTGATCTTTCGGAGTCACCTAGTGCAG,9960 fluorescence intensity (a.u.)
8,AGTCCGTCCACCTCGGGTTCCGCGTCAATCACGCTAGCCCCGGAGTCACCTAGTGCAG,10900 fluorescence intensity (a.u.)
9,GATCGTTTCTATTCCTAATTCGTTTTCTTTATACTCCCTCCGGAGTCACCTAGTGCAG,11100 fluorescence intensity (a.u.)
10,CCCTTGCACGAATCTCAAAGGCCTCGTCACCGTCCGATCGCGGAGTCACCTAGTGCAG,8020 fluorescence intensity (a.u.)
11,TCATGTCCAAATCACGTCTCCATCTTCTTCTATCTCATCCCGGAGTCACCTAGTGCAG,8340 fluorescence intensity (a.u.)
12,GTAGTTGGGGTAGGATATAGAAAAGTTTGAATTAGAATAACGGAGTCACCTAGTGCAG,11600 fluorescence intensity (a.u.)
13,GTAGCGTACTATTTATATCTAAATTTATCTTTTTTGTTTCCGGAGTCACCTAGTGCAG,8130 fluorescence intensity (a.u.)
14,CCCATCTCGCCCTGTCCCGGCCTACATCCAAGCTTGAAATCGGAGTCACCTAGTGCAG,16000 fluorescence intensity (a.u.)
15,TAATTCGATTACTGTCAACTGTACGTGTTATTTATACTACCGGAGTCACCTAGTGCAG,8220 fluorescence intensity (a.u.)
16,ACAGTTTCAGGCCCAGCTTTTCTTCTCCTTGCTTTTGATCCGGAGTCACCTAGTGCAG,9680 fluorescence intensity (a.u.)
17,GAACATTTCTTCTCTCCAATCAAATGTACGGACGGCTAAACGGAGTCACCTAGTGCAG,8520 fluorescence intensity (a.u.)
18,TTCTGATTAACTGTCTGCTACTCTTGAAAGCTGCACTCGACGGAGTCACCTAGTGCAG,9920 fluorescence intensity (a.u.)
19,CAAGCGCTCACAGCCCAAACTTCCCACATTTTCCTTGGTTCGGAGTCACCTAGTGCAG,9710 fluorescence intensity (a.u.)
20,CTCTATGTACACATTGTTTTTTTATTGGACATTAATTGATCGGAGTCACCTAGTGCAG,8620 fluorescence intensity (a.u.)
21,ACCAAAATTGACTTAAATGTTGTTATATTTTTCTGTCCTACGGAGTCACCTAGTGCAG,8800 fluorescence intensity (a.u.)

row,Sequence,binding signal
1,TCTCCTCAGTCTTCACTATACTATTCCTATTACTAATAACCGGAGTCACCTAGTGCAG,9050 fluorescence intensity (a.u.)
2,CCTCCCTATTCGATTTAGCTAAACATGTGTTTTTTCATTTCGGAGTCACCTAGTGCAG,8460 fluorescence intensity (a.u.)
3,GTCACCTTAACCTCAGTGTTGTTTCACCTGCCACGCCAGCCGGAGTCACCTAGTGCAG,9060 fluorescence intensity (a.u.)
4,GCAGTTAGCTAACACCTTCTGCCCTGACTATCATAGCCACCGGAGTCACCTAGTGCAG,9040 fluorescence intensity (a.u.)
5,TCATATGCTGTAATTCTTTTTTTTTTTTTGTTATAAGTCACGGAGTCACCTAGTGCAG,8190 fluorescence intensity (a.u.)
6,ATTCTCCATTTTGATATTGAGCTCAACTTTGATTGGATTGCGGAGTCACCTAGTGCAG,9990 fluorescence intensity (a.u.)
7,TACTTAAATAGTTTGATCCTCTTGTCTATTTCTTGCGTTTCGGAGTCACCTAGTGCAG,8060 fluorescence intensity (a.u.)
8,CACCCTGCTATCTCCATCTCCTCCACCGTTGCATCTTACCCGGAGTCACCTAGTGCAG,10100 fluorescence intensity (a.u.)
9,GCGTCCAGTTTTGTTTCTTGATACTCTCTCTCTACAAAATCGGAGTCACCTAGTGCAG,9580 fluorescence intensity (a.u.)
10,AAATCACCTATACCGTGTCTAATCCATCACCCACGCAATCCGGAGTCACCTAGTGCAG,9010 fluorescence intensity (a.u.)
11,CCAACTAAAGCACGCCTTGCCATTGGTTGACTCTGCACCTCGGAGTCACCTAGTGCAG,8340 fluorescence intensity (a.u.)
12,CTCTCCTGTCCTCGAGCGGTTGGTTGATCGATCGATCAGCCGGAGTCACCTAGTGCAG,9480 fluorescence intensity (a.u.)
13,ATCGTTTTCTGTCTCTTACGTGTACCTTTCAATACCCATCCGGAGTCACCTAGTGCAG,8640 fluorescence intensity (a.u.)
14,CCACCTCCTACGCAACCCACTGCACACTGCAATTTTTTTACGGAGTCACCTAGTGCAG,9420 fluorescence intensity (a.u.)
15,AGTGTTGACCAGCTTTGACCACCTTACCCAACTCCTTGTGCGGAGTCACCTAGTGCAG,17200 fluorescence intensity (a.u.)
16,GTGAACGGTTTGAATGAATTTATGGGCGAATATTTCTGGTCGGAGTCACCTAGTGCAG,8050 fluorescence intensity (a.u.)
17,CCTCTCTTAACACTGCACACTGCCAACTTATCCATCAATTCGGAGTCACCTAGTGCAG,10800 fluorescence intensity (a.u.)
18,TTTGCTTGTAACGTTTGACCACTCGTCTTATTCAAAGTTTCGGAGTCACCTAGTGCAG,10700 fluorescence intensity (a.u.)
19,CTTGGTGTCCTCCTCTCAGTTGCTCTACTCTCGATTTCCACGGAGTCACCTAGTGCAG,8440 fluorescence intensity (a.u.)
20,CTTAAAGCAGTTTGACTTTGACCAAAGTCAAAACGTCTTACGGAGTCACCTAGTGCAG,15400 fluorescence intensity (a.u.)
21,ACGCCTCACCTCACCTCACCTCACCGCCGTCTCCTTCCTCCGGAGTCACCTAGTGCAG,8940 fluorescence intensity (a.u.)

row,Sequence,binding signal
1,AAATTTCACTTTGGATCACCTTTTATTACTAGTGTTTTACCGGAGTCACCTAGTGCAG,8330 fluorescence intensity (a.u.)
2,CCGCTTCTTTTTCTTAACTTTTGGGCCCGCTCTTTTCTTACGGAGTCACCTAGTGCAG,8790 fluorescence intensity (a.u.)
3,TTTTGCCACGAGCTCGCTCAAACTCACACACACGCTAATCCGGAGTCACCTAGTGCAG,9170 fluorescence intensity (a.u.)
4,GGTGGGGACCTGGTGGTGGTTAGGCCGGTGTGCGCGACGGCGGAGTCACCTAGTGCAG,10000 fluorescence intensity (a.u.)
5,ATGTCGTCCGCCACCGCCGCCGCCACCGCCACCATCGCCGCGGAGTCACCTAGTGCAG,8680 fluorescence intensity (a.u.)
6,AGACCGCTCGATCGTCCCGTCCGGCCTCGGCAGTTGCACTCGGAGTCACCTAGTGCAG,9710 fluorescence intensity (a.u.)
7,ATGGCTGAATCTGTACAAGTGTCGTGAGGTGGAAAATTTCCGGAGTCACCTAGTGCAG,8930 fluorescence intensity (a.u.)
8,CTTACAATTAACACTACTGTCTATGTCTCAATTCATACTACGGAGTCACCTAGTGCAG,8710 fluorescence intensity (a.u.)
9,TACTACTACTACTCGGATCACTCGCGCGCCCGTCCGCTTCCGGAGTCACCTAGTGCAG,9990 fluorescence intensity (a.u.)
10,GGCCGAGCAGGTCTCCCGCGCCTTCGACATCCCTCTGCCACGGAGTCACCTAGTGCAG,8600 fluorescence intensity (a.u.)
11,GTCTGTATAGTTTACTACTTCTCTATTTAACAAAATTGGTCGGAGTCACCTAGTGCAG,9160 fluorescence intensity (a.u.)
12,AAATCGGCGCACCACCACCGCCCCGCCGTCCACGAATCGACGGAGTCACCTAGTGCAG,8150 fluorescence intensity (a.u.)
13,ATTCTTTTTCATAATTATGTAACCTTGATGCTTCCCTGACCGGAGTCACCTAGTGCAG,8160 fluorescence intensity (a.u.)
14,TTTGAAACGAGCAATGTCTAATGTCAACTACTCTCTTATTCGGAGTCACCTAGTGCAG,8120 fluorescence intensity (a.u.)
15,TTCCCTGCTGTCGTTGCTCTTATCCTATCCTACGTTTGTTCGGAGTCACCTAGTGCAG,8270 fluorescence intensity (a.u.)
16,ACAGTTTGTTCAGGGTACCCGGCTACCCGCCTTCTAACTACGGAGTCACCTAGTGCAG,8080 fluorescence intensity (a.u.)
17,GTGTAGGAGTAGTTAGGGTTGTTGCTTGTTGGAGGGAAAACGGAGTCACCTAGTGCAG,9460 fluorescence intensity (a.u.)
18,TTTTGATATACTTGATCTCCTCTTTCCATTTTTATCAAAACGGAGTCACCTAGTGCAG,10300 fluorescence intensity (a.u.)
19,TATTTTTTACCTGAAGTTGTCATTCTCCTGCCGTGTGTTTCGGAGTCACCTAGTGCAG,14500 fluorescence intensity (a.u.)
20,AAGGATGATAGGTATATTGGGATGGAGGTAGTAGTATAGTCGGAGTCACCTAGTGCAG,10700 fluorescence intensity (a.u.)
21,ATGCCATGTCCTCGTCCTAGGTGAAACAGCCACATCATCTCGGAGTCACCTAGTGCAG,10700 fluorescence intensity (a.u.)

# Some values from the entries so far:
# AAGGATGATAGGTATATTGGGATGGAGGTAGTAGTATAGTCGGAGTCACCTAGTGCAG – binding signal: 10700 fluorescence intensity (a.u.)
# ATGTCGTCCGCCACCGCCGCCGCCACCGCCACCATCGCCGCGGAGTCACCTAGTGCAG – binding signal: 8680 fluorescence intensity (a.u.)
# ATTCTTTTTCATAATTATGTAACCTTGATGCTTCCCTGACCGGAGTCACCTAGTGCAG – binding signal: 8160 fluorescence intensity (a.u.)
# TATTTTTTACCTGAAGTTGTCATTCTCCTGCCGTGTGTTTCGGAGTCACCTAGTGCAG – binding signal: 14500 fluorescence intensity (a.u.)

# Next entries

row,Sequence,binding signal
1,ACCCCAATAATTGCTGTTCCAAGCCCCAAAAAAAAACACTCGGAGTCACCTAGTGCAG,8320 fluorescence intensity (a.u.)
2,GTTTCTTACCCATCTACTATGGCCTATTTAACCCTGCGCCCGGAGTCACCTAGTGCAG,11000 fluorescence intensity (a.u.)
3,CTCTCTTATTCTTCTCTTCGACCGTTTCTTCGCCGACAAGCGGAGTCACCTAGTGCAG,10100 fluorescence intensity (a.u.)
4,CCTCGCCGAAGCCTCTCTACCTCTGTGTGTCTCTCTCTCCCGGAGTCACCTAGTGCAG,8120 fluorescence intensity (a.u.)
5,GTTTCATTTTTTCTTCTTTCTTTGCTTTTGTTTCCAAGTCCGGAGTCACCTAGTGCAG,10900 fluorescence intensity (a.u.)
6,GGTACAGTTTCGTGTCCCTGCACTTCATCGAGTGTATTTTCGGAGTCACCTAGTGCAG,11600 fluorescence intensity (a.u.)
7,TCAGGTTTCTATTTCCACCACATATTTTAGTTTTAATCCACGGAGTCACCTAGTGCAG,10000 fluorescence intensity (a.u.)
8,ACATTCTCGATTTTGCTCTCTAACTCTCGATTTTTATTGTCGGAGTCACCTAGTGCAG,8710 fluorescence intensity (a.u.)
9,TTTTTCTGTTTGGTTTCATGTGCCTGTCCTTTTCACTGACCGGAGTCACCTAGTGCAG,15400 fluorescence intensity (a.u.)
10,GGTTGGTTGATTTGATTAGTGAAACAAAAAAAAAGTGGTTCGGAGTCACCTAGTGCAG,9950 fluorescence intensity (a.u.)
11,ATGTCGTTACCAACGCCGCGCGTCTCCCACTCACCACCGCCGGAGTCACCTAGTGCAG,9350 fluorescence intensity (a.u.)
12,TTTACATATAATTTTCTTTAGGGTTTTATAGCTTTTTTAACGGAGTCACCTAGTGCAG,8600 fluorescence intensity (a.u.)
13,CGTGTACGCAACCTCCGCTTCATCACGCCCGTTCGTCGCGCGGAGTCACCTAGTGCAG,11200 fluorescence intensity (a.u.)
14,GCCCTTTTGGTCTCGGGTGGATCCGCTTAGCTTTGGTTCTCGGAGTCACCTAGTGCAG,8610 fluorescence intensity (a.u.)
15,GTCCGCTTGCTGCTGAGCGGTGCCTAACATCCTTAAATTTCGGAGTCACCTAGTGCAG,8370 fluorescence intensity (a.u.)
16,AAATTACGCTCCTGAAGTCACGCCTACGCGTGCACGTGCACGGAGTCACCTAGTGCAG,8870 fluorescence intensity (a.u.)
17,TCGCCGCGCTCGCCCGCGCCCCGCCTTCCGCCGCCTGCGGCGGAGTCACCTAGTGCAG,8380 fluorescence intensity (a.u.)
18,ATGGTGGTTTTTCTTTTTTTTTCCACTCACCCTCAAATAACGGAGTCACCTAGTGCAG,13800 fluorescence intensity (a.u.)
19,AGTTTTTCATTTACTCATAGCCTTCCACATATGCTCATTCCGGAGTCACCTAGTGCAG,8740 fluorescence intensity (a.u.)
20,TTTCGTAGCCTTAAAATTACCTCGTCACTGTCTTGTACTCCGGAGTCACCTAGTGCAG,9930 fluorescence intensity (a.u.)
21,CGCACCAATCTCACCACATCAATCCACATGGCGTCGCGTCCGGAGTCACCTAGTGCAG,8610 fluorescence intensity (a.u.)

# Reference: PMC7819943, “Rice protein-binding microarrays: a tool to detect cis-acting elements near promoter regions in rice”
